# Screening data

Source: PubChem BioAssay AID1159506 (NCATS, 2015).

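Genome-wide siRNA knockdown in TC32 Ewing sarcoma cells, comparing luciferase light from an NR0B1-promoter reporter with a CMV-promoter reporter 48 hours after transfection.
Each siRNA was applied at 20 nM.
A z-score of the log NR0B1-over-CMV signal, less the median of siRNAs with the same seed; more negative means a stronger specific loss of the NR0B1 reporter.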

The strongest results of the screen are mostly left out here.
Sequences are the guide (antisense) strand, without overhang.

Sequence,target gene,seed-corrected z-score
AUCAUUUUCUGCGUAAUUC,FARS2,0.2556
UCUCCAAUGAAAAAGCUCG,GPRC6A,-0.07706
UGAGUUUGCAGUGCACCAC,SPHKAP,1.96
AAGGGAGUGGGUGAAUUGG,AQP1,-0.4543
UUAAGCACCUCCGAGAACU,CKB,1.505
UAACUAAUGACUUCAAUGC,LRRC31,0.81
UCACGGCCCAGUCAAGUGU,IL11,0.04334
UCAUCUGCCUCACAAUUUC,RAP2A,-0.1204
UUUUUCGUCAUCAGCAUGC,VGLL4,0.6073
UUUGGUAAUUGGUCGACAG,LRRC74A,-0.841
UUGGGCUUAACUCCUGCUC,ELN,-0.2755
UGUUCAACUACAUUGGAUC,OR5B12,0.0182
UGUAGUAUCUGUGCAUUGC,MTMR11,0.3771
UUUGAUGAUCAGACGGUGC,DNAJC11,-1.656
UCUCUUGAGACAGCUGUCU,HNRNPA1P60,-0.04649
UUCAAAUACCCUGUCGUCG,ISCA2,-0.111
UCUCGUUUAGGAUCCUUAC,ZCCHC13,0.2422
UAGGGUCUCAGCAUGGUUC,CCDC187,0.06176
UAAUCGUCAAAGUUCUCAC,PMP2,1.359
UUCACAACGACCGUAGAGC,SPACA3,-0.8259
UAUCGGCCCACAACAAUGA,DDB2,0.167
UAAAUAUUCAGCUCCACAC,GUSBP5,0.04812
UUCCUUGUUAGAUGUCUUC,CEP170B,-0.962
UCUGUAGCUUGGCUUUAUC,HMGN2P16,0.7002
UGCAGUUGUAUUAUCCAGC,EEA1,0.05182
AACAGUCGAACCAUUCUCC,CKAP5,-0.02307
UCAGCGGACCCAUUAAUGC,TMEM236,-0.2537
UAUAGGGUUUGUUCAGUCG,ERCC3,-0.381
UUCUGUACGACCUCCUUCA,COTL1,1.031
AGCACGUUGAGGAUAAAGC,GGT5,-0.8431
UUCUCGUUAGUUCAUAAGC,USP13,-0.04667
UUCCUCAACCGUUCCCUCG,CNIH3,-0.8934
UUCUGGAUCUUAGCAAGGC,NAIF1,-0.2191
UAGGAUCCUGCAUCGUUCC,CEACAM6,0.2075
UGUAUAUCUACUAUGCGAC,SOS1,-0.2146
UCUUUAGCCUCUUUUGAAC,DACH1,0.03319
AAAAAUGCUACGGCUGUUG,STX10,3.188
AUAGUGGGAAGGUUGGUGC,NCSTN,-1.111
UAUUGUUCUGCUAGUUUGG,AKIRIN1,0.8477
UGUAUAUGCACUGUGAACC,CASP10,0.4123
UCAAUGGACUCCUUCCAGC,GSG1L2,0.9932
AGGUGAUUGUGCUUCUUGC,CROCCP3,1.261
UCGUCCAACACCAAUAUGG,ASAH2,0.1925
UGAAUAGUAAUCGAGGGUC,OMA1,0.1634
UAAAUGAACGCUGCUCAAG,NPM1P39,-0.7337
UUGGGUACAGGCACUGAGA,RPS2P50,-0.5832
UAAAGGGCCCACCAGAUUC,POFUT2,0.8031
UCAUCUAGCAAACUGUUUC,NUDT7,-0.04689
UUUCUGAAGUUGGUAUUCC,GNG12,-0.0163
UUGCUGUCCAAGUUGCUCA,S100A4,0.08878
UUUUCGAUUACAUCGCUGG,FABP6,0.3897
UAAUGGAGUGACAACAGUG,OR10G2,-0.5587
UUCGUUAUUCCAGAAGUAC,PPP2R5A,-0.2077
UUCAAGGCGAGUGUUGGGC,DPP3,-0.03362
UGACUAGCCUCCAAUAUCC,CASP8AP2,-0.2841
AUCAGUACUGUCAUCAUGC,WBP11,-0.4581

Some entries from above, unchanged:

Sequence,target gene,seed-corrected z-score
UUCCUUGUUAGAUGUCUUC,CEP170B,-0.962
UCUCGUUUAGGAUCCUUAC,ZCCHC13,0.2422
UCAUCUGCCUCACAAUUUC,RAP2A,-0.1204
UAAAGGGCCCACCAGAUUC,POFUT2,0.8031
UGAGUUUGCAGUGCACCAC,SPHKAP,1.96
UUCUCGUUAGUUCAUAAGC,USP13,-0.04667
UGUAGUAUCUGUGCAUUGC,MTMR11,0.3771